Data published in article PMC7227406, “Protein Phosphatases Type 2C Group A Interact with and Regulate the Stability of ACC Synthase 7 in Arabidopsis” (Cells, 2020).

Chains of the proteins cited; added tags and fusions are not shown. Lines headed by an entry give the natural chain unless they say otherwise; changes in a name come on top.
UniProt Q9CAJ0: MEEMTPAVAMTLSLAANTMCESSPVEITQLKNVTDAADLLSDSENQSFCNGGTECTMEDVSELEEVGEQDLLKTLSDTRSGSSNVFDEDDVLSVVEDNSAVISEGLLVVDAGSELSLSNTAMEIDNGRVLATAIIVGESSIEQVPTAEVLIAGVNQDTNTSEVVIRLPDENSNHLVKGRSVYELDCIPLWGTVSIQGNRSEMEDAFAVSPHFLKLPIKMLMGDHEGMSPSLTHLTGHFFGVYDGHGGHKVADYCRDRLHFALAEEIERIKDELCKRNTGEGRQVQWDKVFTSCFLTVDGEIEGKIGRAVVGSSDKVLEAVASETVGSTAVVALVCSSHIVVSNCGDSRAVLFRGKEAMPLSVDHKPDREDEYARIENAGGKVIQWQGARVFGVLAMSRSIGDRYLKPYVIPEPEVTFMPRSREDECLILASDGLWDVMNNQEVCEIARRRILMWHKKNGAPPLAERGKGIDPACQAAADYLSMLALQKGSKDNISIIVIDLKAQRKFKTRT

What was measured:
Experiment in all cases: split reporter; multicolor BiFC (mcBiFC) in Arabidopsis leaf mesophyll protoplasts; plasmids for nVenus and cCFP fusions mixed 1:1, PEG-mediated transformation, overnight at room temperature; confocal microscopy, 488 nm excitation, 500–550 nm emission; CBP20–RFP as transformation control and nuclear marker
[1] = molecular target: T1, nVenus–ACS7 Δ4 (ACS7^101–447) (Arabidopsis thaliana) (UniProt Q9STR4)
T1 sequence: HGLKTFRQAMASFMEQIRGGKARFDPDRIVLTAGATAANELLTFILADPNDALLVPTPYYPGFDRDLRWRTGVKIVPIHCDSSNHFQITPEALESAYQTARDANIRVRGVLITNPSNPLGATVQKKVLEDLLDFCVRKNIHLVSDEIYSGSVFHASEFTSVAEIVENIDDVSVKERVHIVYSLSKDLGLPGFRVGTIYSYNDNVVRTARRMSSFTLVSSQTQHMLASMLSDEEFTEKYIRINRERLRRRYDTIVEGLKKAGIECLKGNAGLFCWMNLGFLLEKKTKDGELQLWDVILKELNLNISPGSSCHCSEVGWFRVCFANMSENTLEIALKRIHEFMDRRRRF

[2] = molecular target: T2, nVenus–ACS7 Δ2 (ACS7^1–100) (Arabidopsis thaliana) (UniProt Q9STR4)
T2 sequence: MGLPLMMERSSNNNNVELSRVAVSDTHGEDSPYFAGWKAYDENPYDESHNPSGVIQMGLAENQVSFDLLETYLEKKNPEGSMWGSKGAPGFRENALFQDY

[3] = molecular target: T3, nVenus–ACS7 (1-aminocyclopropane-1-carboxylate synthase 7 fused with the N-terminal fragment of Venus) (Arabidopsis thaliana) (UniProt Q9STR4)
T3 sequence: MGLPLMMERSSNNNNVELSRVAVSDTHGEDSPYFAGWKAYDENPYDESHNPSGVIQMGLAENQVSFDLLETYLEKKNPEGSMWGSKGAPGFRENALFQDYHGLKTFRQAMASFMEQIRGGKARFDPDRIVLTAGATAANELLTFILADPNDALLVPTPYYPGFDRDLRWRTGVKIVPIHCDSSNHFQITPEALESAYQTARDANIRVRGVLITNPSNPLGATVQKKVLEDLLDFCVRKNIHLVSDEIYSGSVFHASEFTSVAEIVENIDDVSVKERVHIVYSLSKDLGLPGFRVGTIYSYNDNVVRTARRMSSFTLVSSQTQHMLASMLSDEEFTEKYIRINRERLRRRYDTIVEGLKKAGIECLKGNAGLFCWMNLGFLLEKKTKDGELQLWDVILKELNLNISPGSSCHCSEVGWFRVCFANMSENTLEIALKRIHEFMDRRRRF

[4] = molecular target: T4, nVenus–ACS7 Δ1 (ACS7^1–50) (Arabidopsis thaliana) (UniProt Q9STR4)
T4 sequence: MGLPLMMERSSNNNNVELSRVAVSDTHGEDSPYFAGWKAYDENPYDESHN

[5] = molecular target: T5, nVenus–ACS7 Δ3 (ACS7^200–447) (Arabidopsis thaliana) (UniProt Q9STR4)
T5 sequence: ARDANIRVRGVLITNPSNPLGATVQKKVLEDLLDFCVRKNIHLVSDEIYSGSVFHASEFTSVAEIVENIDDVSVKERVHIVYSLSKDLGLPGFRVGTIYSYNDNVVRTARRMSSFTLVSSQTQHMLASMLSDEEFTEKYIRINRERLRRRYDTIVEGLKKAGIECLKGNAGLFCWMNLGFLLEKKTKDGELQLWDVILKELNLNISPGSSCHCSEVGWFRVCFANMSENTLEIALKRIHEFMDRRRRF

Measured: binding

cCFP–HAB1 (protein phosphatase type 2C HAB1 fused with the C-terminal fragment of CFP) (from UniProt Q9CAJ0) (enzyme)
binds: all assays above

No constants are given. Whether binding was seen depends on the method and setting. Binding seen in cells or lysates may run through a third protein. Binding can be weak; no strength is given. For some assays here: Where a sequence is shown, tags or fusion partners need not be part of it.
